Laboratory results from publication PMC8931434.

By UniProt entry, the sequences of proteins in these tests, tags left out.
UniProt O35488: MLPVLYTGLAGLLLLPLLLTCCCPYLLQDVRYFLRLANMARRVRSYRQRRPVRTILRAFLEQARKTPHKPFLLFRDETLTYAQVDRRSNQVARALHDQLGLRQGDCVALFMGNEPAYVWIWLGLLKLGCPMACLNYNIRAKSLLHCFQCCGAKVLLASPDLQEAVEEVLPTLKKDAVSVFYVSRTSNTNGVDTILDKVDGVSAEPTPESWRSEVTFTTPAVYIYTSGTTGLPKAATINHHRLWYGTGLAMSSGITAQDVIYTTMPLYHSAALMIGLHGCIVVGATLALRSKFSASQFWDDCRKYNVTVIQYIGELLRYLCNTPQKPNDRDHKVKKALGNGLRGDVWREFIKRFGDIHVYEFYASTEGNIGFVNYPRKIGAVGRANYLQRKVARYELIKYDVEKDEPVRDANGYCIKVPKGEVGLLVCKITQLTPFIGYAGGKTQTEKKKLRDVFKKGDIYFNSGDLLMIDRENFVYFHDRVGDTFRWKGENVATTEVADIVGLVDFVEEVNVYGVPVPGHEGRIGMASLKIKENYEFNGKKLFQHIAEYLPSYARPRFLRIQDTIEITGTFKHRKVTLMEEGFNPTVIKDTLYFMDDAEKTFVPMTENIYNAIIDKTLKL
UniProt P00329: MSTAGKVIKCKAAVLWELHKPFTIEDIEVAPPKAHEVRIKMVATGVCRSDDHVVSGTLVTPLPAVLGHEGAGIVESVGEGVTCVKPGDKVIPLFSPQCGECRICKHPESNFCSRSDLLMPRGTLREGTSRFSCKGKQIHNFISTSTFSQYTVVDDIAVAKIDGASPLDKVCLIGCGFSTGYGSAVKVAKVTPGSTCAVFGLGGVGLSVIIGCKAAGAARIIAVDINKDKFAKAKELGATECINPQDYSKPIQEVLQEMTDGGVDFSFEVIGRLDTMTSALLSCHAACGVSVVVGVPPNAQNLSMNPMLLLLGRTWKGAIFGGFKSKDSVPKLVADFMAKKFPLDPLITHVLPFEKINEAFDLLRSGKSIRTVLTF

Biological target: T1, Ceramide synthase 2 (mouse) (UniProt Q924Z4)
T1 sequence: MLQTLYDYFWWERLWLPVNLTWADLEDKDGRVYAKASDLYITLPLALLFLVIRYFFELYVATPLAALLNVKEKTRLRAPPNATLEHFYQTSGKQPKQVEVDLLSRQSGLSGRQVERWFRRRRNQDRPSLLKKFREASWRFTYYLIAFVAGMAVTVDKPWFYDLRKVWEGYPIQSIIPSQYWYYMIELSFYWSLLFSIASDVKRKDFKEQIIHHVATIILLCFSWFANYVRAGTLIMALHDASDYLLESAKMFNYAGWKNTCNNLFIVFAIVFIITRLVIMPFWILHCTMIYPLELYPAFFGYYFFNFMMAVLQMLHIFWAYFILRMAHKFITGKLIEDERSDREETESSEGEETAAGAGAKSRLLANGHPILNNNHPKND
Test: affinity purification with mass spectrometry; rabbit anti-CerS2 antibody and protein A agarose on WT mouse liver homogenate (150 mM NaCl, 20 mM Hepes pH 7.5, 1% digitonin, 4 °C), LC-MS/MS, compared with CerS2 null mouse liver; three mice per group

Substance	binding
Very long-chain acyl-CoA synthetase (from UniProt O35488 1-620)	binds
Alcohol dehydrogenase 1 (from UniProt P00329 1-375)	binds

These are yes or no findings as the source states them, for the method shown. In cells and extracts the contact can be indirect. These calls come from enrichment with a bait or labelling near it, and not all partners need be listed.
